Assay results from PubChem BioAssay AID1347426 (Functional Genomics Laboratory (NCATS/FGL), 2020).
The whole screen tested about 31,000 sequences, of which about 1,400 (4.5%) were called active.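 How the source made its calls: active means median seed-adjusted z-score above 1 or below -1; inactive means the rest.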 Some of the results follow.

Assay: Novel Modifiers of Survival Motor Neuron (SMN) Protein: Gene Identification via Genome-wide siRNA Screen;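 further: luminescence tracks full-length SMN protein made from the SMN2 reporter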
Conditions: HEK293T SMN2-luciferase reporter, siRNA knockdown, 72 h; actives lie on both sides
Outline: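 HEK293T cells stably carrying an SMN2 promoter/splicing cassette–luciferase reporter were reverse-transfected with 1 pmol siRNA per well (druggable-genome library, 3 siRNAs per gene) and grown 72 h at 37 °C. Luminescence, normalized to negative-control siRNA and log10-transformed, was scored as MAD.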
In the case of UGCCUACACUACUUAAGUATT against TXNDC17, the median seed-adjusted z-score is reported as inactive: 0.245. For GUAUAGUGAUUGUAGCUGUTT against NDUFC1, the median seed-adjusted z-score was inactive: 0. For GGCUGCGGAUGAUUUCAGATT against KRT31, the median seed-adjusted z-score was inactive: 0.604. In the case of GUGACCUUGUCAUUCCGUATT against RGS5, the median seed-adjusted z-score is reported as inactive: 0. In the case of CCACGAGUGGAUGAAAUCATT against NAT9, the median seed-adjusted z-score is reported as inactive: -0.657. For AGAACAACCUGGACUAUAUTT against PPP5C, the median seed-adjusted z-score was inactive: 0.473. For CUAUGGACGUCUCCAAUCATT against GSTM4, the median seed-adjusted z-score was inactive: -0.204. For GGCAGUUGAAGAUAUAGAATT against PRDM5, the median seed-adjusted z-score was inactive: -0.463. With GAGUGGGAAUGGUCAGGCUTT against ADORA2B the median seed-adjusted z-score was inactive: -0.471. With CAAACUUCCCGAUAGAGAATT against CTDP1 the median seed-adjusted z-score was active: -2.29. In the case of CAAGAACACUCCUCGAGUATT against ZNF823, the median seed-adjusted z-score is reported as inactive: 0.143. For CCGUUUACCUGCUCUAUAATT against OTUB2, the median seed-adjusted z-score was inactive: 0.513. For GGAUUGAAAACUUCAUCAATT against GLUD2, the median seed-adjusted z-score was inactive: -0.0225. For CAAGGGCACAGGCACAAAATT against SBK1, the median seed-adjusted z-score was inactive: 0.0587. In the case of GAGUAUCUCUGAAACCUCUTT against IL1A, the median seed-adjusted z-score is reported as active: 1.12. In the case of GCCGUGUCUAUUCCAUCUATT against CAV1, the median seed-adjusted z-score is reported as inactive: 0. For GGAGAGCAGAGUACUCAAATT against MORF4L1, the median seed-adjusted z-score was inactive: 0.225. For GCAUGGGAACAACUACAAATT against TTPA, the median seed-adjusted z-score was inactive: -0.208. In the case of CCAUCUAUUCUGCAACCAATT against HSD17B12, the median seed-adjusted z-score is reported as inactive: 0.0719. With AAGAGAGACUUAAGAUGAATT against SPRR1B the median seed-adjusted z-score was inactive: -0.721. In the case of GGUGCUGAAUGUGGAGUAATT against DNAJC3, the median seed-adjusted z-score is reported as inactive: 0.502. For GAUAAAAGGUUACAAACGATT against HIF1AN, the median seed-adjusted z-score was inactive: -0.0315. In the case of UGACCUACGAUGAAUUUAATT against APOBEC3A, the median seed-adjusted z-score is reported as inactive: 0.467. With GGCUGUCAGUAAACAACAATT against CCNF the median seed-adjusted z-score was inactive: -0.435. For GAAAAUGAGAGUGAACCAATT against WBP5, the median seed-adjusted z-score was inactive: 0.452. For CAGUUAUACCCAUAAGAAATT against ZNF180, the median seed-adjusted z-score was inactive: 0. For CCUAUGGACUGAACAGGGATT against ZDHHC3, the median seed-adjusted z-score was inactive: 0.229. In the case of GGAUGGUCCUGGAAAGUAUTT against USP5, the median seed-adjusted z-score is reported as inactive: 0.596. With GCUCAGAUGUUAUUCGGGATT against SKIV2L the median seed-adjusted z-score was inactive: 0.209. In the case of GCCUAAUGAUCCGACUUUATT against ABCA12, the median seed-adjusted z-score is reported as inactive: 0.0759. With GGAUCACACCUACGACCUUTT against GPR112 the median seed-adjusted z-score was inactive: 0. With CGAAGAGUAUUUGACCAAATT against BAG3 the median seed-adjusted z-score was inactive: -0.443. For CCUACAAGUUUAUUCGGGATT against GPR173, the median seed-adjusted z-score was inactive: -0.147. With GGCCUGAUUUCAAACGAAATT against ABHD5 the median seed-adjusted z-score was inactive: 0.131. For GCUAUGGAGUGAUUGAACATT against HERC3, the median seed-adjusted z-score was inactive: -0.0884. For GCUUCCAGGUGUACUGUGATT against FIBCD1, the median seed-adjusted z-score was inactive: -0.0249. In the case of GGAUUGACCAGUUAACCAATT against SLC40A1, the median seed-adjusted z-score is reported as inactive: -0.177. In the case of CAACAGCGAUGAUUACAGUTT against SRY, the median seed-adjusted z-score is reported as inactive: -0.949. With GGUUGCUACGGGAACAAUATT against ARSD the median seed-adjusted z-score was inactive: -0.447. For AGGUACUACUUAUCGAGAATT against GPX1, the median seed-adjusted z-score was inactive: -0.0529. For GAAGAACUGUUCAACUGUATT against UPP2, the median seed-adjusted z-score was inactive: 0.586. For GCACACUUGAGUUUGUGUATT against HES6, the median seed-adjusted z-score was inactive: 0.71. In the case of UCCUUAUGGUUUUACACGATT against AMY2B, the median seed-adjusted z-score is reported as inactive: -0.564. For CAAUGAUAGAUGAUCUAAATT against DZIP1, the median seed-adjusted z-score was inactive: -0.138. For GGAACAACUUAAUCAGUAUTT against TNPO1, the median seed-adjusted z-score was inactive: 0.688. For GCUUUGUGAACGACAAUUATT against RABGGTB, the median seed-adjusted z-score was inactive: -0.856. With UGGUGACCAUGGACGUGGATT against ANAPC2 the median seed-adjusted z-score was inactive: -0.116. In the case of GCCCAGGGCAUUACACUGATT against TENC1, the median seed-adjusted z-score is reported as inactive: 0.892. With GAAGGUGGAUUGCAACAAATT against GPX6 the median seed-adjusted z-score was inactive: 0.35. For AGAUCUCGGCUUUGGAUAUTT against ACPT, the median seed-adjusted z-score was inactive: -0.114. For GCACGUUAAGAAGCCCGAATT against TRMU, the median seed-adjusted z-score was inactive: 0.0312. For GCAUAGUGCUUGUACUAUUTT against SLC9A8, the median seed-adjusted z-score was inactive: 0.367. For UGCUCUACAUCAACCCUGATT against FSHR, the median seed-adjusted z-score was inactive: -0.462. For GGCACCCAUUGAUAAGAAATT against MYL9, the median seed-adjusted z-score was inactive: 0.571. In the case of UGCUUAUUCCUCACACUUATT against DDO, the median seed-adjusted z-score is reported as inactive: -0.202. With CUGUUAUUCUUCAUACCUATT against TAAR8 the median seed-adjusted z-score was inactive: 0.0792. In the case of CCAUAUAGCAGAUUAGAUUTT against LIPI, the median seed-adjusted z-score is reported as inactive: 0.65. In the case of GGAUAAUAAGGGAACGGGATT against ALDH9A1, the median seed-adjusted z-score is reported as inactive: -0.297. In the case of CAAUGAGACUUACUAUGGUTT against SLC2A5, the median seed-adjusted z-score is reported as inactive: -0.429. In the case of GGAUGCAAUUGAAGCUCAUTT against ATG5, the median seed-adjusted z-score is reported as inactive: -0.0597. In the case of GGAUCUCAAUCUAGCAGUATT against JARID1D, the median seed-adjusted z-score is reported as inactive: 0.293. In the case of GGCUAACUACUGAGCUGAATT against C1RL, the median seed-adjusted z-score is reported as inactive: -0.148. With GGAGCUGGGUUAUCCAAGATT against PPP1R1B the median seed-adjusted z-score was inactive: -0.354. In the case of UGGACUUGGUGUGCAUUAATT against GFOD1, the median seed-adjusted z-score is reported as inactive: 0.923. In the case of GGGCUUCGGUUACUGCUUUTT against LTBP4, the median seed-adjusted z-score is reported as inactive: 0.19. With CGACCAAAUGUGAAAUGGATT against VPS4B the median seed-adjusted z-score was inactive: -0.0992. For GGUUCGACAAGUUCAAAUATT against EEF1D, the median seed-adjusted z-score was inactive: 0.421. In the case of CAACAUUUCGAUGCUCCUATT against GPR135, the median seed-adjusted z-score is reported as inactive: 0.546. With ACAUCUCAGAGAUCGAAGATT against ST8SIA2 the median seed-adjusted z-score was inactive: 0.516.
